This passage reports binding results from patent US10822723.

For test [1], the target named is Flag-PAK4cat, catalytic domain of human PAK4 expressed in mammalian cells (human) (UniProt O96013). Nature of the test: co-expression with PAK4cat in mammalian cells, formation of co-crystals.
In test [2] the target is FLAG-tagged wild type PAK4 (human) (UniProt O96013). Nature of the test: co-immunoprecipitation from mammalian cell lysates, anti-Flag Sepharose, anti-HA Western.
For test [3], the target named is T1, FLAG-tagged activated PAK4 with a mutated AID, PAK4* (RR48/49AE) (human) (UniProt O96013).
T1 sequence (looked up): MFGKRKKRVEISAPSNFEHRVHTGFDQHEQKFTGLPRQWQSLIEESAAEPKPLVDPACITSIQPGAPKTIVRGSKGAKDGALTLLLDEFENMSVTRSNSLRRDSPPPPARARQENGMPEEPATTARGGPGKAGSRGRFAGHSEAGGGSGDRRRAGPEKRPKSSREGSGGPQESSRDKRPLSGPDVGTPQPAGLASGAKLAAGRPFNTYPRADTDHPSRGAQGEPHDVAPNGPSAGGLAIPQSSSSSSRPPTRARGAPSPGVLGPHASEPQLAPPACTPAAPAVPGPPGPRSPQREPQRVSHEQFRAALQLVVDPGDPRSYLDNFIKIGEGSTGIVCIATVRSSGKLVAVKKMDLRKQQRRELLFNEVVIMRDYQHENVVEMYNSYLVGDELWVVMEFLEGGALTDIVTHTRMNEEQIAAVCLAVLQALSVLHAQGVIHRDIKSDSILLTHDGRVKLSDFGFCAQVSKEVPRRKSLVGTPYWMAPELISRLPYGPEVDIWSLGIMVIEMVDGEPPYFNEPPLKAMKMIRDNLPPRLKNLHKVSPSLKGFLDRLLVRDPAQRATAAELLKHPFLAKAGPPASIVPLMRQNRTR
The description is as above.

Test [4] concerns the target Flag-PAK4cat, catalytic domain of human PAK4 expressed in mammalian cells (human) (UniProt O96013). Nature of the test: co-expression in mammalian cells, co-crystals, immuno-staining.
For test [5], the target named is FLAG-tagged wild type PAK4 (human) (UniProt O96013). The test is described as follows: co-immunoprecipitation.
For test [6], the target named is Flag-PAK4cat, catalytic domain of human PAK4 expressed in mammalian cells (human) (UniProt O96013). The test is described as follows: co-expression in mammalian cells, fluorescent co-crystals.

No constants are given. Whether binding was seen depends on the method and setting. For some of these results: In cells and extracts the contact can be indirect. Some entries that bind do so weakly or less than the wild type. Tags and fused reporters may be left off the sequences shown.

B1: HA-tagged Inka1 (165-285) (protein, human, UniProt Q96EL1 165-285, looked up, not shown: small tags and cut ends)
chain: QGLEAEDWTAALLNRGRSRQPLVLGDNCFADLVHNWMELPETGSEGGDGGGHRARARPPQFLLGLSEQLRRRLARARRTAMAGKRLSCPPRPEPELPADVSRFAALMSCRSRQPIICNDVS
With B1, the binding entry in test [1] is given as “binds”.

B2: full-length HA-Inka1 (human Inka1, FAM212A) (protein, UniProt Q96EL1 1-285, looked up, not shown: small tags and cut ends)
chain: MDMHSARLDSFLSQLRWELLCGRDTGSPSMPGPLQPTSQTGPDVQPSHQLRASGALEEDSVCCVEEEEEEEEEAVVTEDRDAALGGPREHALDWDSGFSEVSGSTWREEELPVSQRPAPSAQPLRRQCLSVSGLPMPSRAPVASVPPVHHPRPKSTPDACLEHWQGLEAEDWTAALLNRGRSRQPLVLGDNCFADLVHNWMELPETGSEGGDGGGHRARARPPQFLLGLSEQLRRRLARARRTAMAGKRLSCPPRPEPELPADVSRFAALMSCRSRQPIICNDVS
Turning to B2, the binding entry in test [2], in test [3], in test [4] and in test [5] was “binds” throughout. Turning to RPEPELPADVSRFAALMSCRSRQPIICNDVS (peptide, human, UniProt Q96EL1 255-285, looked up, not shown: small tags and cut ends) [HA-tagged Inka1 (255-285), the C-terminal 31 amino acid of Inka1], in test [1], the binding entry is “binds”.

B3: GFP-Inka1 (protein, human, UniProt Q96EL1 1-287, looked up, not shown: large carriers)
chain: MDMHSARLDSFLSQLRWELLCGRDTGSPSMPGPLQPTSQTGPDVQPSHQLRASGALEEDSVCCVEEEEEEEEEAVVTEDRDAALGGPREHALDWDSGFSEVSGSTWREEELPVSQRPAPSAQPLRRQCLSVSGLPMPSRAPVASVPPVHHPRPKSTPDACLEHWQGLEAEDWTAALLNRGRSRQPLVLGDNCFADLVHNWMELPETGSEGGDGGGHRARARPPQFLLGLSEQLRRRLARARRTAMAGKRLSCPPRPEPELPADVSRFAALMSCRSRQPIICNDVSYL
On to B3, for which the binding entry in test [6] was “binds”.
